Data reported in PMC8520724.
Results are given in words; binding and its absence hold for the method and conditions named. Binding seen in cells or lysates may run through a third protein. Here binding means that the protein was enriched with, or labelled near, the bait; the list need not be complete.

Chains of the proteins cited; added tags and fusions are not shown.
UniProt Q96EB6: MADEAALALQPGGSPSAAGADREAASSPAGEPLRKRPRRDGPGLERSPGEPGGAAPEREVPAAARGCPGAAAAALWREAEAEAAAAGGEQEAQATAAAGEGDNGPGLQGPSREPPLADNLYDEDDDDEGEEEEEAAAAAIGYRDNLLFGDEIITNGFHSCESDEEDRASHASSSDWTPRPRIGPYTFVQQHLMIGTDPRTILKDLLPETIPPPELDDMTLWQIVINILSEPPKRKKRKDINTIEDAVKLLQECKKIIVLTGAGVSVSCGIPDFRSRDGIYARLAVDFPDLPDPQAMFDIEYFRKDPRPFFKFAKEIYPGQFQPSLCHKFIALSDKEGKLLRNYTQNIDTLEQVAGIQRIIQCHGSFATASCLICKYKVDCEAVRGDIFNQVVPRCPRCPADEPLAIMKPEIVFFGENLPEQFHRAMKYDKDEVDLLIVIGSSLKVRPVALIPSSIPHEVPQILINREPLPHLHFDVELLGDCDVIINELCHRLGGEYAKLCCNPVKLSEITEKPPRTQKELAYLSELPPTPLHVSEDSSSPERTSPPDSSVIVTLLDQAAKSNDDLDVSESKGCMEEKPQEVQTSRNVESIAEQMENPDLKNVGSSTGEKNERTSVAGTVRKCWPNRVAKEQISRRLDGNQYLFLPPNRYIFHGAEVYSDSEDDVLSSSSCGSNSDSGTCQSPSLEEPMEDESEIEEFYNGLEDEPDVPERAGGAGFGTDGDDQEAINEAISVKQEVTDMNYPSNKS
UniProt P08670: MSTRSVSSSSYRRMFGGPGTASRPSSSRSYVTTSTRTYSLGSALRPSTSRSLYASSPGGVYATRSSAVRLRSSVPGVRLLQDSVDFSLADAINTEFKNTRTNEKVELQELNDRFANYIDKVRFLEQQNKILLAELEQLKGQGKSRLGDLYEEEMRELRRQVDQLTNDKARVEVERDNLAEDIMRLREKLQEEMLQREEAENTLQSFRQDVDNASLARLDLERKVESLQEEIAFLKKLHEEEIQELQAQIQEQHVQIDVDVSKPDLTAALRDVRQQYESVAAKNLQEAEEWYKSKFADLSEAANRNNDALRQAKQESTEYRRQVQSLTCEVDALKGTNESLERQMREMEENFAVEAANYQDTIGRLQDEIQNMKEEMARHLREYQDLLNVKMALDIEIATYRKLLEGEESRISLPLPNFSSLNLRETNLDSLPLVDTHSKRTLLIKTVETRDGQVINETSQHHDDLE

Biological target: SIRT1 (human (endogenous in HTR8/SVneo cells and human first-trimester villi)) (UniProt Q96EB6)
Assay: affinity purification with mass spectrometry; IP of endogenous SIRT1 (anti-SIRT1 on Protein A/G magnetic beads, 8 h at 4°C) from lysates of HTR8/SVneo cells and of human first-trimester villi in IP lysis buffer; matched IgG isotype control; SDS-PAGE, in-gel tryptic digestion, LC-MS/MS

With vimentin (from UniProt P08670 1-466) the binding was “binds”.
